Test results published in publication PMC12390678.
These are yes or no findings as the source states them, for the method shown. Binding seen in cells or lysates may run through a third protein. Some results given as binding are weak or reduced against the parent protein; the word gives no strength.

Sequences of proteins named here, by UniProt entry; tags and fusion partners are left off. Residues count along the entry.
UniProt Q8N122: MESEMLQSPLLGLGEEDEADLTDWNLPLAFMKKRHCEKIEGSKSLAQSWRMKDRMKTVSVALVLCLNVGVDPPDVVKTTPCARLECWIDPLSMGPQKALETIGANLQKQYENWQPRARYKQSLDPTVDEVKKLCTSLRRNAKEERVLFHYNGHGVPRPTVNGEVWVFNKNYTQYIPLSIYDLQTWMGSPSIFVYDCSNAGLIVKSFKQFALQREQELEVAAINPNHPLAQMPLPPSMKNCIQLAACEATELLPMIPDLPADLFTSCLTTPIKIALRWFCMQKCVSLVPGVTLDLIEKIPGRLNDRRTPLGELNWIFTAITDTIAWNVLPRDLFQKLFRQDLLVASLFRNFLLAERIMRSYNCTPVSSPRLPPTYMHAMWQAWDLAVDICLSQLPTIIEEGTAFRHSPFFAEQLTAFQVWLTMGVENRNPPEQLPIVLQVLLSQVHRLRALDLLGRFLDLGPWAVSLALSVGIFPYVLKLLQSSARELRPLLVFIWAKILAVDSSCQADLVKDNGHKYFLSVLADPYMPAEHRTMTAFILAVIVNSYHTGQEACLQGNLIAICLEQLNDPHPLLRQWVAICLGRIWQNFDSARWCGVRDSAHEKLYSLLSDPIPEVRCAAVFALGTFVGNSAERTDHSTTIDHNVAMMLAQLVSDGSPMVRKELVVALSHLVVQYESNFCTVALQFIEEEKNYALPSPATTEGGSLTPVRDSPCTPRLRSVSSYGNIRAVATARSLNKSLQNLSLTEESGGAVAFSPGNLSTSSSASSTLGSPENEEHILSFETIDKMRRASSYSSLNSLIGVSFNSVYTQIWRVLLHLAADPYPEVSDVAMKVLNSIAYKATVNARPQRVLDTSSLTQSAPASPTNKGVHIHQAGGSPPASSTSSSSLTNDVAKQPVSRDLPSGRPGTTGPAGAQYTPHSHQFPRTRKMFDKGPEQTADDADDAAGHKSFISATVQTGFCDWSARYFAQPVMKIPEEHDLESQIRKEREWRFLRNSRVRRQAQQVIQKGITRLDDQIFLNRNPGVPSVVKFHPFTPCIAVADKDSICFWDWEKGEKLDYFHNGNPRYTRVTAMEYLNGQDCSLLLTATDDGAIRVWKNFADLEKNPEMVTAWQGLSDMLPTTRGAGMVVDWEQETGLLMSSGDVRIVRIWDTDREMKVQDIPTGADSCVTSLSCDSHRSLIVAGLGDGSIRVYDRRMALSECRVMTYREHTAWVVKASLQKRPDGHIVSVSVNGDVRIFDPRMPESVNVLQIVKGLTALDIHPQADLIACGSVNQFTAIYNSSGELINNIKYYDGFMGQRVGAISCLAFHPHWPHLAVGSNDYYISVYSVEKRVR
UniProt P03186, residues 1-246: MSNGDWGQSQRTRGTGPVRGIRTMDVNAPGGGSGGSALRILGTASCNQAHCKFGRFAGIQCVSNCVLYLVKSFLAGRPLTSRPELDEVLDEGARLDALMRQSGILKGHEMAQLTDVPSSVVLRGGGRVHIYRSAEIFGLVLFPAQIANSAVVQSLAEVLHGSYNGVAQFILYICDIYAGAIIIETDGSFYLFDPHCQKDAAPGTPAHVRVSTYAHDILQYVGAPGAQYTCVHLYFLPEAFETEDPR

Target: myc-Raptor (UniProt Q8N122)
Test: co-IP

“Flag-tagged BPLF1 1-246 (from UniProt P03186 1-246) (domain or fragment)” was tested, and the binding was “binds”.
